Measured values reported in PubChem BioAssay AID180 (DTP/NCI, 2004).
The list does not hold the whole screen: it gathers tests that were run many times, whatever their T/C, doses with no T/C, and many T/C values between a quarter and a half above the control. Other doses and runs of a compound stand elsewhere. T/C: endpoint of the treated group in % of that of the vehicle group. Schedules are NCI's codes, taken here to give the interval after Q, in days (D) or hours (H), and the number of doses after X. Some T/C values are followed by the survivors on the day toxicity was checked, most often the fifth; without a count, all were alive then. Some doses were run more than once; their values stand side by side, smallest first. Some entries give survivors of the animals treated and no T/C: the source holds a T/C of zero for them, seemingly a mark for toxic or unscored doses. Counts of survivors are from the toxicity check (mostly the fifth day) where no day follows; animals may have died later.

System: BDF1 mice, Adenocarcinoma 755 s.c., tumor weight T/C
Experiment: NCI In Vivo Anticancer Drug Screen. Data for tumor model Adenocarcinoma 755 (subcutaneous) in B6D2F1 (BDF1) mice
Settings: T/C endpoint: mean tumor weight, higher T/C = larger tumour; for T/C: evaluated on day 12
Method in brief: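 Compound activity was tested in mice carrying transplanted tumors. Survival or tumor size was measured, and each value is the treated-group measurement divided by that of the vehicle-treated control group (T/C).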

[1] = dose: 14.0 mg/kg/injection, schedule: Q01DX011 (ip), vehicle: carboxymethylcellulose (CMC)
[2] = dose: 56.0 mg/kg/injection, schedule: Q01DX011 (ip), vehicle: carboxymethylcellulose (CMC)
[3] = dose: 200.0 mg/kg/injection, schedule: Q01DX011 (ip), vehicle: carboxymethylcellulose (CMC)
[4] = dose: 340.0 mg/kg/injection, schedule: Q01DX011 (ip), vehicle: carboxymethylcellulose (CMC)
[5] = dose: 400.0 mg/kg/injection, schedule: Q01DX011 (ip), vehicle: carboxymethylcellulose (CMC)
[6] = dose: 225.0 mg/kg/injection, schedule: Q01DX011 (ip), vehicle: methylcellulose (MC)

In the case of `CC1CCN2CCC(O)C12` (centres undefined), the T/C [1] is reported as 130 % of control, the T/C (dose: 28.0 mg/kg/injection, schedule: Q01DX011 (ip), vehicle: carboxymethylcellulose (CMC)) is reported as 136 % of control and the T/C [2] is reported as 127 % of control. For the same compound, the survivor count [2] was 6 of 10 and the survivor count (dose: 113.0 mg/kg/injection, schedule: Q01DX011 (ip), vehicle: carboxymethylcellulose (CMC)) was 2 of 10.
In the case of `C=CCC1(CC)C(=O)NC(=O)NC1=O`, the T/C (dose: 25.0 mg/kg/injection, schedule: Q01DX011 (ip), vehicle: methylcellulose (MC)) is reported as 125 % of control, the survivor count [3] is reported as 0 of 10 and the survivor count [4] is reported as 0 of 10. The survivor count [5] was 0 of 10, the survivor count (dose: 800.0 mg/kg/injection, schedule: Q01DX011 (ip), vehicle: carboxymethylcellulose (CMC)) was 0 of 10 and the survivor count (dose: 1600.0 mg/kg/injection, schedule: Q01DX011 (ip), vehicle: carboxymethylcellulose (CMC)) was 0 of 10.
In the case of `CN1CCC(CN2c3ccccc3Sc3ccccc32)CC1`, the survivor count (dose: 240.0 mg/kg/injection, schedule: Q01DX011 (ip), vehicle: methylcellulose (MC)) is reported as 4 of 10.
`C/C(=N\NC(=O)c1ccncc1)c1ccc(Cl)cc1Cl` was tested, and the survivor count (dose: 120.0 mg/kg/injection, schedule: Q01DX011 (ip), vehicle: methylcellulose (MC)) was 3 of 10.
For `Nc1ccc(C(=O)O)c(O)c1`, the T/C (dose: 70.53 mg/kg/injection, schedule: Q01DX011 (ip), vehicle: carboxymethylcellulose (CMC)) was 126 % of control [9 of 10 alive].
In the case of `Nc1ncnc2c1ncn2CCCl`, the survivor count (dose: 150.0 mg/kg/injection, schedule: Q01DX011 (ip), vehicle: methylcellulose (MC)) is reported as 2 of 10.
For `OCCn1cnc2c(SCc3ccccc3)ncnc21`, the survivor count [6] was 6 of 10.
With `CSc1ncc(Br)c(=S)[nH]1` the survivor count (dose: 62.0 mg/kg/injection, schedule: Q01DX011 (ip), vehicle: methylcellulose (MC)) was 6 of 10, the survivor count (dose: 125.0 mg/kg/injection, schedule: Q01DX011 (ip), vehicle: methylcellulose (MC)) was 6 of 10 and the survivor count (dose: 250.0 mg/kg/injection, schedule: Q01DX011 (ip), vehicle: methylcellulose (MC)) was 6 of 10.
`CC(=O)Nc1c(Cl)c(Cl)c2c(c1Cl)C(=O)c1cc(Cl)ccc1-2` was tested, and the T/C (dose: 100.0 mg/kg/injection, schedule: Q01DX011 (ip), vehicle: other) was 129 % of control, the survivor count (dose: 200.0 mg/kg/injection, schedule: Q01DX011 (ip), vehicle: methylcellulose (MC)) was 3 of 10 and the survivor count (dose: 400.0 mg/kg/injection, schedule: Q01DX011 (ip), vehicle: methylcellulose (MC)) was 3 of 10.
In the case of `COc1ccc2c(c1)CCC(c1ccccc1)=C2c1ccc(OCCN2CCCC2)cc1`, the survivor count (dose: 50.0 mg/kg/injection, schedule: Q01DX011 (sc), vehicle: steroid suspending solution) is reported as 0 of 10 and the survivor count (dose: 100.0 mg/kg/injection, schedule: Q01DX011 (sc), vehicle: steroid suspending solution) is reported as 0 of 10.
With `CC1(C)O[C@@H]2C[C@H]3[C@@H]4CCC5=CC(=O)CC[C@]5(C)[C@@]4(F)[C@@H](O)C[C@]3(C)[C@]2(C(=O)CO)O1` the T/C (dose: 3.0 mg/kg/injection, schedule: Q01DX011 (sc), vehicle: steroid suspending solution) was 25 [9 of 10 alive], 30, 34, 36 % of control, the survivor count (dose: 48.0 mg/kg/injection, schedule: Q01DX011 (sc), vehicle: steroid suspending solution) was 3 of 12 and the survivor count (dose: 72.0 mg/kg/injection, schedule: Q01DX011 (sc), vehicle: steroid suspending solution) was 1 of 12.
For `CCCOC(=O)C1(N)CCCC1`, the survivor count [3] was 5 of 10 and the survivor count [5] was 2 of 10.
`CCCCCCCCOP(=O)(N1CC1)N1CC1` was tested, and the survivor count (dose: 1.0 mg/kg/injection, schedule: Q01DX011 (ip), vehicle: saline) was 4 of 10 and the survivor count (dose: 6.75 mg/kg/injection, schedule: Q01DX011 (ip), vehicle: saline) was 2 of 10.
For `c1ccc(N2N=C3N(c4ccccc4)C2N3c2ccccc2)cc1`, the survivor count (dose: 30.0 mg/kg/injection, schedule: Q01DX011 (ip), vehicle: other) was 4 of 10.
In the case of `CSc1ncn(C)c2ncnc1-2`, the survivor count (dose: 120.0 mg/kg/injection, schedule: Q01DX011 (ip), vehicle: carboxymethylcellulose (CMC)) is reported as 5 of 10.
With `c1nc(SC2CCCC2)c2[nH]cnc2n1` the survivor count [4] was 0 of 10, the survivor count (dose: 340.0 mg/kg/injection, schedule: Q01DX011 (oral), vehicle: carboxymethylcellulose (CMC)) was 0 of 10 and the survivor count (dose: 680.0 mg/kg/injection, schedule: Q01DX011 (oral), vehicle: carboxymethylcellulose (CMC)) was 0 of 10.
`CCCN(C)/N=N/c1nc[nH]c1C(N)=O` was tested, and the survivor count (dose: 50.0 mg/kg/injection, schedule: Q01DX011 (ip), vehicle: carboxymethylcellulose (CMC)) was 5 of 10 and the survivor count (dose: 60.0 mg/kg/injection, schedule: Q01DX011 (ip), vehicle: carboxymethylcellulose (CMC)) was 2 of 9.
For `CC1CCCCN1/N=N/c1nc2c([nH]1)c(=O)n(C)c(=O)n2C` (centres undefined), the survivor count [6] was 2 of 10.
With `C=CC(CN1CC1)OC(C)=O` (centres undefined) the survivor count (dose: 4.0 mg/kg/injection, schedule: Q01DX010 (oral), vehicle: saline) was 1 of 10, the survivor count (dose: 4.0 mg/kg/injection, schedule: Q01DX011 (ip), vehicle: methylcellulose (MC)) was 3 of 10 and the survivor count (dose: 4.5 mg/kg/injection, schedule: Q01DX011 (ip), vehicle: carboxymethylcellulose (CMC)) was 6 of 10. For the same compound, the survivor count (dose: 6.75 mg/kg/injection, schedule: Q01DX011 (ip), vehicle: carboxymethylcellulose (CMC)) was 4 of 10, the survivor count (dose: 8.0 mg/kg/injection, schedule: Q01DX010 (oral), vehicle: saline) was 5 of 10 and the survivor count (dose: 9.9 mg/kg/injection, schedule: Q01DX011 (ip), vehicle: carboxymethylcellulose (CMC)) was 2 of 10. For the same compound, the survivor count (dose: 10.0 mg/kg/injection, schedule: Q01DX011 (ip), vehicle: carboxymethylcellulose (CMC)) was 6 of 10, the survivor count (dose: 12.8 mg/kg/injection, schedule: Q01DX011 (ip), vehicle: carboxymethylcellulose (CMC)) was 4 of 10 and the survivor count [1] was 1 of 10. For the same compound, the survivor count (dose: 16.0 mg/kg/injection, schedule: Q01DX006 (iv), vehicle: saline) was 4 of 10, the survivor count (dose: 16.0 mg/kg/injection, schedule: Q01DX010 (oral), vehicle: saline) was 0 of 10 and the survivor count (dose: 16.0 mg/kg/injection, schedule: Q01DX011 (sc), vehicle: saline) was 0 of 10. The survivor count (dose: 16.0 mg/kg/injection, schedule: Q02DX004 (im), vehicle: saline) was 1 of 10, the survivor count (dose: 32.0 mg/kg/injection, schedule: Q01DX010 (oral), vehicle: saline) was 0 of 10 and the survivor count (dose: 32.0 mg/kg/injection, schedule: Q01DX011 (sc), vehicle: saline) was 0 of 10.
`COc1cc(C(=O)O)nc(N)n1` was tested, and the T/C (dose: 31.0 mg/kg/injection, schedule: Q01DX011 (ip), vehicle: saline) was 135 % of control and the T/C (dose: 62.0 mg/kg/injection, schedule: Q01DX011 (ip), vehicle: saline) was 145 % of control [9 of 10 alive].
For `CC1=CCN2CCC(O)C12` (centres undefined), the T/C (dose: 75.0 mg/kg/injection, schedule: Q01DX011 (ip), vehicle: carboxymethylcellulose (CMC)) was 129 % of control.
For `CC(=O)c1cc(C)[nH]c1C`, the survivor count (dose: 230.0 mg/kg/injection, schedule: Q01DX011 (ip), vehicle: carboxymethylcellulose (CMC)) was 6 of 10 and the survivor count (dose: 230.0 mg/kg/injection, schedule: Q01DX011 (ip), vehicle: methylcellulose (MC)) was 1 of 10 and 6 of 10.
In the case of `Cc1ccc2c(c1)Sc1ccc3ccccc3c1N2`, the survivor count (dose: 168.0 mg/kg/injection, schedule: Q01DX011 (ip), vehicle: carboxymethylcellulose (CMC)) is reported as 0 of 10, the survivor count (dose: 250.0 mg/kg/injection, schedule: Q01DX011 (ip), vehicle: saline) is reported as 4 of 10 and the survivor count (dose: 335.0 mg/kg/injection, schedule: Q01DX011 (ip), vehicle: carboxymethylcellulose (CMC)) is reported as 2 of 12. The survivor count (dose: 670.0 mg/kg/injection, schedule: Q01DX011 (ip), vehicle: carboxymethylcellulose (CMC)) was 5 of 10 and 6 of 11.
For `Cn1ncc2c(NCc3ccccc3)ncnc21`, the survivor count (dose: 40.0 mg/kg/injection, schedule: Q01DX011 (ip), vehicle: carboxymethylcellulose (CMC)) was 2 of 10.
